Data from publication PMC9415646, “Improving Aqueous Solubility and In Vitro Pharmacokinetic Properties of the 3-Nitroimidazo[1,2-a]pyridine Antileishmanial Pharmacophore” (Pharmaceuticals, 2022).

Tests used:
[1] = test system: T. b. brucei BSF trypomastigotes; assay: Antitrypanosomal evaluation on T. b. brucei BSF trypomastigotes (Alamar Blue); format: cell-based, Trypanosoma brucei brucei; settings: SI = CC50 HepG2/EC50 T. brucei brucei
Experimental: The effects of the tested compounds on the growth of T. b. brucei were assessed by Alamar Blue® assay described by Räz et al. T. b. brucei AnTat 1.9 (IMTA, Antwerpen, Belgium) was cultured in MEM with Earle’s salts, supplemented according to the protocol of Baltz et al. with the following modifications: 0.5 mM mercaptoethanol (Sigma Aldrich®, France), 1.5 mM L-cysteine (Sigma Aldrich®), 0.05 mM bathocuproïne sulfate (Sigma Aldrich®) and 20% heat-inactivated horse serum (Gibco®, France), at 37 °C and 5% CO2. They were incubated at an average density of 2000 parasites/100 µL in sterile 96-wells plates (Fisher®, France) with various concentrations of compounds dissolved in DMSO, in duplicate. Appropriate controls suramin, treated with sterile water, and fexinidazole, treated with DMSO on sterile water (reference drugs purchased from Sigma Aldrich, France and Fluorochem, UK) were added to each set of experiments. After a 69 h incubation period at 37 °C, 10 µL of the viability marker Alamar Blue® (Fisher, France) were then added to each well, and the plates were incubated for 5 h. The plates were read in a ENSPIRE microplate reader (PerkinElmer, Waltham, MA, USA) using an excitation wavelength of 530 nm and an emission wavelength of 590 nm. […] EC50 were calculated by nonlinear regression analysis processed on dose-response curves, using GraphPad Prism software (USA). EC50 values were calculated from three separate experiments.

[2] = test system: L. infantum intracellular amastigotes; assay: Antileishmanial activity on L. infantum intracellular (intra-THP1 macrophage) amastigotes; format: cell-based, Leishmania infantum; settings: for SI THP1 L. infantum Intra. Ama.: SI = CC50 THP1/EC50 L. infantum intracellular amastigotes; for SI HepG2 L. infantum Intra. Ama.: SI = CC50 HepG2/EC50 L. infantum intracellular amastigotes
Experimental: The undifferentiated THP1 human monocyte cells (acute monocytic leukemia cell line purchased from ATCC, ref TIB-202) were grown in RPMI 1640 medium (Life Technologies, Saint-Aubin, France) supplemented with 10% FCS (Life Technologies, Saint-Aubin, France), 100 U/mL penicillin, 100 µg/mL streptomycin and 2 mM L-glutamine at 37 °C, 5% CO2. The culture was maintained between 3.10^5 and 1.10^6 cells/mL. The in vitro evaluation of the antileishmanial activity on intracellular amastigote forms of the tested compound was assessed as below.
Briefly, 200 μL of THP-1 cells with Phorbol 12-Myristate 13-Acetate (final concentration 50 ng/mL) were seeded in 96-well plates at an average density of 0.77 × 10^5 cells/mL and incubated for 96 h at 37 °C, 5% CO2. Promastigotes were centrifuged at 3000 rpm for 10 min and the supernatant replaced by the same volume of complete RPMI pH 5.4 and incubated for 24 h at 27 °C. Differentiated THP-1 cells were then infected by acidified promastigotes with an infection ratio of twenty parasites for one macrophage and incubated for 24 h at 37 °C, 5% CO2.
• Luciferase activity and determination of EC50 were performed as above.

Compound: O=[N+]([O-])c1c(CS(=O)(=O)c2ccc(O)cc2)nc2c(Br)cc(Cl)cn12 [Compound 2c, 4-{[(8-Bromo-6-Chloro-3-Nitroimidazo[1,2-a]pyridin-2-yl)methyl]sulfonyl}phenol]
- SI T. b. brucei [1]: >9.8

Compound: O=[N+]([O-])c1c(CS(=O)(=O)c2ccc(OC(F)(F)F)cc2)nc2c(Br)cc(Cl)cn12 [Compound 2f, 8-Bromo-6-Chloro-3-Nitro-2-[(4-Trifluoromethoxyphenylsulfonyl)methyl]imidazo[1,2-a] pyridine]
- SI THP1 L. infantum Intra. Ama. [2]: > 23.8

Compound: COc1ccc(S(=O)(=O)Cc2nc3c(Br)cc(Cl)cn3c2[N+](=O)[O-])cc1 [Compound 2g, 8-Bromo-6-Chloro-2-[(4-Methoxyphenylsulfonyl)methyl]-3-Nitroimidazo[1,2-a]pyridine]
- SI THP1 L. infantum Intra. Ama. [2]: > 45.5

Compound: O=[N+]([O-])c1c(CS(=O)(=O)c2ccc(O)cc2)nc2c(Sc3ccc(Cl)cc3)cc(Cl)cn12 [Compound 3a, 4-{[(6-Chloro-8-[(4-Chlorophenyl)thio]-3-Nitroimidazo[1,2-a]pyridin-2-yl)methyl]sulfonyl}phenol]
- SI HepG2 L. infantum Intra. Ama. [2]: 8.3
- SI THP1 L. infantum Intra. Ama. [2]: 10.4
- SI T. b. brucei [1]: 28.6

Compound: O=[N+]([O-])c1c(CS(=O)(=O)c2ccc(Cl)cc2)nc2c(Sc3ccc(Cl)cc3)cc(Cl)cn12 [Compound 3b, 6-Chloro-2-[(4-Chlorophenylsulfonyl)methyl]-8-[(4-Chlorophenyl)thio]-3-Nitroimidazo[1,2-a]pyridine]
- SI THP1 L. infantum Intra. Ama. [2]: > 22.3

Compound: O=[N+]([O-])c1c(CS(=O)(=O)c2ccc(F)cc2)nc2c(Sc3ccc(Cl)cc3)cc(Cl)cn12 [Compound 3c, 6-Chloro-8-[(4-Chlorophenyl)thio]-2-[(4-Fluorophenylsulfonyl)methyl]-3-Nitroimidazo[1,2-a]pyridine]
- SI THP1 L. infantum Intra. Ama. [2]: > 62.5
- SI T. b. brucei [1]: >27.4

Compound: O=[N+]([O-])c1c(CS(=O)(=O)c2ccc(C(F)(F)F)cc2)nc2c(Sc3ccc(Cl)cc3)cc(Cl)cn12 [Compound 3d, 6-Chloro-8-[(4-Chlorophenyl)thio]-3-Nitro-2-[(4-Trifluoromethylphenylsulfonyl)methyl]imidazo[1,2-a]pyridine]
- SI HepG2 L. infantum Intra. Ama. [2]: > 0.9
- SI THP1 L. infantum Intra. Ama. [2]: > 11.4
- SI T. b. brucei [1]: >4.4

Compound: O=[N+]([O-])c1c(CS(=O)(=O)c2ccc(OC(F)(F)F)cc2)nc2c(Sc3ccc(Cl)cc3)cc(Cl)cn12 [Compound 3e, 6-Chloro-8-[(4-Chlorophenyl)thio]-3-Nitro-2-[(4-Trifluoromethoxyphenylsulfonyl)methyl]imidazo[1,2-a]pyridine]
- SI THP1 L. infantum Intra. Ama. [2]: > 62.5

Compound: COc1ccc(S(=O)(=O)Cc2nc3c(Sc4ccc(Cl)cc4)cc(Cl)cn3c2[N+](=O)[O-])cc1 [Compound 3f, 6-Chloro-8-[(4-Chlorophenyl)thio]-2-[(4-Methoxyphenylsulfonyl)methyl]-3-Nitroimidazo[1,2-a]pyridine]
- SI THP1 L. infantum Intra. Ama. [2]: > 55.6

Compound: O=[N+]([O-])c1c(CS(=O)(=O)C2CC2)nc2c(Sc3ccc(Cl)cc3)cc(Cl)cn12 [Compound 3h, 6-Chloro-8-[(4-Chlorophenyl)thio]-2-[(cyclopropylsulfonyl)methyl]-3-Nitroimidazo[1,2-a]pyridine]
- SI THP1 L. infantum Intra. Ama. [2]: > 16.9

Compound: O=[N+]([O-])c1c(CS(=O)(=O)CCC(F)(F)F)nc2c(Sc3ccc(Cl)cc3)cc(Cl)cn12 [Compound 3i, 6-Chloro-8-[(4-Chlorophenyl)thio]-3-Nitro-2-[(3,3,3-Trifluoropropylsulfonyl)methyl]imidazo[1,2-a]pyridine]
- SI THP1 L. infantum Intra. Ama. [2]: > 41.7

Compound: O=[N+]([O-])c1c(CS(=O)(=O)CCC(F)(F)F)nc2c([S+]([O-])c3ccc(Cl)cc3)cc(Cl)cn12 (stereo not drawn) [Compound 6a, 6-Chloro-8-[(4-Chlorophenyl)sulfinyl]-3-Nitro-2-[(3,3,3-Trifluoropropylsulfonyl)methyl] imidazo[1,2-a]pyridine]
- SI HepG2 L. infantum Intra. Ama. [2]: > 1.5
- SI THP1 L. infantum Intra. Ama. [2]: > 30.3

Compound: O=[N+]([O-])c1c(CS(=O)(=O)CCC(F)(F)F)nc2c(S(=O)(=O)c3ccc(Cl)cc3)cc(Cl)cn12 [Compound 6b, 6-Chloro-8-[(4-Chlorophenyl)sulfonyl]-3-Nitro-2-[(3,3,3-Trifluoropropylsulfonyl)methyl] imidazo[1,2-a]pyridine]
- SI HepG2 L. infantum Intra. Ama. [2]: > 1.2
- SI THP1 L. infantum Intra. Ama. [2]: > 12.0

Compound: Cn1c([N+](=O)[O-])cnc1COc1ccc(S(C)(=O)=O)cc1 [Fexinidazole sulfone, reference compound]
- SI THP1 L. infantum Intra. Ama. [2]: -/>5.6

Compound: CSc1ccc(OCc2ncc([N+](=O)[O-])n2C)cc1 [Fexinidazole, reference compound]
- SI HepG2 L. infantum Intra. Ama. [2]: >6.3/>6.3
- SI THP1 L. infantum Intra. Ama. [2]: >6.3/>6.3
- SI T. b. brucei [1]: >142.9

Compound: O=[N+]([O-])c1c(CS(=O)(=O)c2ccccc2)nc2c(Br)cc(Cl)cn12 [Hit A, 8-Bromo-6-chloro-3-nitro-2-(phenylsulfonylmethyl)imidazo[1,2-a]pyridine, reference compound]
- SI HepG2 L. infantum Intra. Ama. [2]: > 7.4
- SI THP1 L. infantum Intra. Ama. [2]: > 47.6
- SI T. b. brucei [1]: >11.1

Compound: O=[N+]([O-])c1c(CS(=O)(=O)c2ccccc2)nc2c(Sc3ccc(Cl)cc3)cc(Cl)cn12 [Hit B, reference compound]
- SI HepG2 L. infantum Intra. Ama. [2]: > 31.3
- SI THP1 L. infantum Intra. Ama. [2]: > 19.5
- SI T. b. brucei [1]: >105.3
